For 2 molecules, binding results are on record in PMC4825978, “A Hox Transcription Factor Collective Binds a Highly Conserved Distal-less cis-Regulatory Module to Generate Robust Transcriptional Outcomes”.

No constants are given. Whether binding was seen depends on the method and setting. In cells and extracts the contact can be indirect. Binding calls can cover weak binding; strength is not graded here. Sequences can lack the tags named with a protein.

Assay [1] concerns the target his-Exd51A (Exd with homeodomain mutation N51A) (Drosophila). Kind of assay: co-purification; heterodimers purified from BL21 cells as previously described, one subunit His-tagged; confirmed by SDS-PAGE and Coomassie blue staining.
Assay [2] addresses his-Hth∆HD (homeodomain-less Homothorax) (Drosophila). The description is as above.

B1: Hth of the his-Exd51A/Hth heterodimer (protein, UniProt O46339 1-487)
chain: MAQPRYDDGLHGYGMDSGAAAAAMYDPHAGHRPPGLQGLPSHHSPHMTHAAAAAATVGMHGYHSGAGGHGTPSHVSPVGNHLMGAIPEVHKRDKDAIYEHPLFPLLALIFEKCELATCTPREPGVQGGDVCSSESFNEDIAMFSKQIRSQKPYYTADPEVDSLMVQAIQVLRFHLLELEKVHELCDNFCHRYISCLKGKMPIDLVIDERDTTKPPELGSANGEGRSNADSTSHTDGASTPDVRPPSSSLSYGGAMNDDARSPGAGSTPGPLSQQPPALDTSDPDGKFLSSLNPSELTYDGRWCRREWSSPADARNADASRRLYSSVFLGSPDNFGTSASGDASNASIGSGEGTGEEDDDASGKKNQKKRGIFPKVATNILRAWLFQHLTHPYPSEDQKKQLAQDTGLTILQVNNWFINARRRIVQPMIDQSNRAVYTPHPGPSGYGHDAMGYMMDSQAHMMHRPPGDPGFHQGYPHYPPAEYYGQHL
Regarding B1, the binding result in assay [1] is on record as “binds”.

B2: untagged Exd (Extradenticle) (protein, UniProt P40427 1-376)
chain: MEDPNRMLAHTGGMMAPQGYGLSGQDDGQNAGSENEVRKQKDIGEILQQIMSISEQSLDEAQARKHTLNCHRMKPALFSVLCEIKEKTVLSIRNTQEEEPPDPQLMRLDNMLIAEGVAGPEKGGGGAAAASAAAASQGGSLSIDGADNAIEHSDYRAKLAQIRQIYHQELEKYEQACNEFTTHVMNLLREQSRTRPITPKEIERMVQIIHKKFSSIQMQLKQSTCEAVMILRSRFLDARRKRRNFSKQASEILNEYFYSHLSNPYPSEEAKEELARKCGITVSQVSNWFGNKRIRYKKNIGKAQEEANLYAAKKAAGASPYSMAGPPSGTTTPMMSPAPPQDSMGYPMGSGGYDQQQPYDNSMGGYDPNLHQDLSP
As for B2, in assay [2], the binding entry was “binds”.
